Experimental data published in the supplement of paper PMC10849652.
This is one part of the list.

By UniProt entry, the sequences of proteins in these tests, tags left out. Where a name states a change or a piece, a line headed by the entry shows the natural chain unless it says otherwise.
UniProt O95997: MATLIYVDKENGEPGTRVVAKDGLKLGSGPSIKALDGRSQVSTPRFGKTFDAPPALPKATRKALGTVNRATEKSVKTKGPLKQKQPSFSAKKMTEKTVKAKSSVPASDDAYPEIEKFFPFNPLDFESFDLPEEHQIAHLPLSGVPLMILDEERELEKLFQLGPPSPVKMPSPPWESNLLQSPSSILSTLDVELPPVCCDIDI
UniProt P53801: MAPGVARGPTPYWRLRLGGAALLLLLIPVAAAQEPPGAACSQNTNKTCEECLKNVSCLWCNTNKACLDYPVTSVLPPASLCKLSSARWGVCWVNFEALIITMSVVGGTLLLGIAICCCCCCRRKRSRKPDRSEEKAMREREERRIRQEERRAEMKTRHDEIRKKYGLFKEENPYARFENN
UniProt P26599: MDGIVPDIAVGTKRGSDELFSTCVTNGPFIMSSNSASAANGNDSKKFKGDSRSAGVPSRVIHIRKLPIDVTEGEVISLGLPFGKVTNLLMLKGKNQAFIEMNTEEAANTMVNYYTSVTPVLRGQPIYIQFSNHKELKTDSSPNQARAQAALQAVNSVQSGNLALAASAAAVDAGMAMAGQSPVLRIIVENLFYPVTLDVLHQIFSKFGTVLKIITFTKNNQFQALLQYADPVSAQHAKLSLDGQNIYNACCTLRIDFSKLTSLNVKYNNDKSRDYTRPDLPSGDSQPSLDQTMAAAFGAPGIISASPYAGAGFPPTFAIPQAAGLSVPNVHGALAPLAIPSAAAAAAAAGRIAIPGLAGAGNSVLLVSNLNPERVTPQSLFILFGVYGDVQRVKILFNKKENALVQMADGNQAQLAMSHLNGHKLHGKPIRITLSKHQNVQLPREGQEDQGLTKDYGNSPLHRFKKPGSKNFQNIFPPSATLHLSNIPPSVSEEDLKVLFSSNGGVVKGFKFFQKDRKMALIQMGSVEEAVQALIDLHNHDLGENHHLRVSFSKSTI
UniProt Q8TBF2: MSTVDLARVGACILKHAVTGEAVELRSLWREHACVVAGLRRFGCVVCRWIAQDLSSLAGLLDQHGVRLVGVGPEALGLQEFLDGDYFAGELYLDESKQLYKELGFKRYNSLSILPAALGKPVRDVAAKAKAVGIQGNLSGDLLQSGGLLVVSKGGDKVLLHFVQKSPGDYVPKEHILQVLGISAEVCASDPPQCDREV
UniProt P47897: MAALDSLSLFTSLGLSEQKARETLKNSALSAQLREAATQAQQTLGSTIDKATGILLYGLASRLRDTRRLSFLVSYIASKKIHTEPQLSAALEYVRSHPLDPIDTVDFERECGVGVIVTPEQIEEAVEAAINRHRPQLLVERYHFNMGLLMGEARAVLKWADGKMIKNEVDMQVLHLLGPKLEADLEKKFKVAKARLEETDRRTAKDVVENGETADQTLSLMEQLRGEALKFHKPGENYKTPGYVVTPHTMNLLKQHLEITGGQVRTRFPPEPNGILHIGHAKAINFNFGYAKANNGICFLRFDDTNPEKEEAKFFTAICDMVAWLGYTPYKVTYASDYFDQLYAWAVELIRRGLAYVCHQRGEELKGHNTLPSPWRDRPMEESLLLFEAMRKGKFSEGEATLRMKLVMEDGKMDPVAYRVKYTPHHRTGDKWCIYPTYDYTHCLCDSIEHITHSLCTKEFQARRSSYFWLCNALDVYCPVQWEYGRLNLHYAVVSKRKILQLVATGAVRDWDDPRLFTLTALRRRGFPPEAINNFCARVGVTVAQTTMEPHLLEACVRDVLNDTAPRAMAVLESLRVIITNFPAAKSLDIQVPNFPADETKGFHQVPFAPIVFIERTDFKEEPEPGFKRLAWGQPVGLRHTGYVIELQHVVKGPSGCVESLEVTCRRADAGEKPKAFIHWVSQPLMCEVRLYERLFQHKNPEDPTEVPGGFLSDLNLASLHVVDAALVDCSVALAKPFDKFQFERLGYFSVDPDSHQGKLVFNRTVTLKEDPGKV
UniProt P28074: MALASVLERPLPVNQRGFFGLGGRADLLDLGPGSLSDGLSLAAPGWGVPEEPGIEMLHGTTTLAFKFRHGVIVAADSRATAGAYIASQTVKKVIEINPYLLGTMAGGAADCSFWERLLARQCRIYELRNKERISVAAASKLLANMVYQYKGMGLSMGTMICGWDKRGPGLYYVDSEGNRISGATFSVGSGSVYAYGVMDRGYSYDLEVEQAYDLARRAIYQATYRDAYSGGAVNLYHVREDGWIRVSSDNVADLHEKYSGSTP
UniProt P28062: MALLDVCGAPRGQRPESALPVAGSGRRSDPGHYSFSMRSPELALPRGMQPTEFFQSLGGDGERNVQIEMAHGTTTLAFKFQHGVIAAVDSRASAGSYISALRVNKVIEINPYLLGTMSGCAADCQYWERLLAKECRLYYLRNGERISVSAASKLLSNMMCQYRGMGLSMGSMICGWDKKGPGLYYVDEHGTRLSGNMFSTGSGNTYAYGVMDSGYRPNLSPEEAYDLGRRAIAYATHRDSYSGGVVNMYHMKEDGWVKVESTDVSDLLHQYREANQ
UniProt P43378: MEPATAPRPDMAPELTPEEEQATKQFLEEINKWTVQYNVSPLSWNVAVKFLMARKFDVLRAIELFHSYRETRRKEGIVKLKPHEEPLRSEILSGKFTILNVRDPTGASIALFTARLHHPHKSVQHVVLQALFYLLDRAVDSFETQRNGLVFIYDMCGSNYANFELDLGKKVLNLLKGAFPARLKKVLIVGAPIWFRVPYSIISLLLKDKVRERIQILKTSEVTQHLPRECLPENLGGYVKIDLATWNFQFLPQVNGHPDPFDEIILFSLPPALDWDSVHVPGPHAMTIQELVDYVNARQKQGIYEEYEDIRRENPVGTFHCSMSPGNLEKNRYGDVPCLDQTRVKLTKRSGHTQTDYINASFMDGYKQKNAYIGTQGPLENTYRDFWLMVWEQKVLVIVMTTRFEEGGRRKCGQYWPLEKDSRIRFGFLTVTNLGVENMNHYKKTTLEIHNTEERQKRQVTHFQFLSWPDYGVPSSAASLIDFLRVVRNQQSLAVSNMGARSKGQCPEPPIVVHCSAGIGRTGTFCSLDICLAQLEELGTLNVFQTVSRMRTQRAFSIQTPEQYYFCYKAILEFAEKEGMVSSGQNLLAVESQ
UniProt Q9P2W1: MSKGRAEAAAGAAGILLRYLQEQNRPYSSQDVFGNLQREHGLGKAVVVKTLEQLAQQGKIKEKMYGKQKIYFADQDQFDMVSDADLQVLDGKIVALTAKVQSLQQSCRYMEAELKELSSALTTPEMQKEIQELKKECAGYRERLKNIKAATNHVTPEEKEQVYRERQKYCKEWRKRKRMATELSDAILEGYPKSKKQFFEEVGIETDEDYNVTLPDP
UniProt Q9NYI0: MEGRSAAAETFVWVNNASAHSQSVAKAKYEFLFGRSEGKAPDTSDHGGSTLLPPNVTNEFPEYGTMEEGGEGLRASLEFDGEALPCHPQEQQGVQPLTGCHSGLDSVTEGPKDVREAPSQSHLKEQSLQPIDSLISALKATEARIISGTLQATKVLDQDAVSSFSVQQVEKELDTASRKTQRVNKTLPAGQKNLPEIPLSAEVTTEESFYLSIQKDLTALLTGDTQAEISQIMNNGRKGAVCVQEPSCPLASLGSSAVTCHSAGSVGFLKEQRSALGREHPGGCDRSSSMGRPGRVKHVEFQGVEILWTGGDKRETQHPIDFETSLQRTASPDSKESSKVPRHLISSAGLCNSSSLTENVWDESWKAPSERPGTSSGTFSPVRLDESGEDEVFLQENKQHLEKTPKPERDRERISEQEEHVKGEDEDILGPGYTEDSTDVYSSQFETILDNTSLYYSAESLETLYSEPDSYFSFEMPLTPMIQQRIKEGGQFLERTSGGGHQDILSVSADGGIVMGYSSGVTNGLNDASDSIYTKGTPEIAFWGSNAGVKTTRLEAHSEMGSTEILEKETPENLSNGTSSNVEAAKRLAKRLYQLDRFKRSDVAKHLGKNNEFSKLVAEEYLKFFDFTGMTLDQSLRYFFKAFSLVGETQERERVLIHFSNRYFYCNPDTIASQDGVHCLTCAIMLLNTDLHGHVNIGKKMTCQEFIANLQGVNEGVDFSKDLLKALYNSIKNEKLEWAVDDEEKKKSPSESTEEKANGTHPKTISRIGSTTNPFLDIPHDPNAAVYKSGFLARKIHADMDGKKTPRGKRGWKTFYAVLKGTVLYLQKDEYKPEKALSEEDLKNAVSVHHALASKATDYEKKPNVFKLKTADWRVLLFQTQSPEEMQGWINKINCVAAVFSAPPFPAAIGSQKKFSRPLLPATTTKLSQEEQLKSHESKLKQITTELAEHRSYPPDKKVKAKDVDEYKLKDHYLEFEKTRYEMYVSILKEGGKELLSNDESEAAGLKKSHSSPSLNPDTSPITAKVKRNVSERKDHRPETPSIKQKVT
UniProt P35236: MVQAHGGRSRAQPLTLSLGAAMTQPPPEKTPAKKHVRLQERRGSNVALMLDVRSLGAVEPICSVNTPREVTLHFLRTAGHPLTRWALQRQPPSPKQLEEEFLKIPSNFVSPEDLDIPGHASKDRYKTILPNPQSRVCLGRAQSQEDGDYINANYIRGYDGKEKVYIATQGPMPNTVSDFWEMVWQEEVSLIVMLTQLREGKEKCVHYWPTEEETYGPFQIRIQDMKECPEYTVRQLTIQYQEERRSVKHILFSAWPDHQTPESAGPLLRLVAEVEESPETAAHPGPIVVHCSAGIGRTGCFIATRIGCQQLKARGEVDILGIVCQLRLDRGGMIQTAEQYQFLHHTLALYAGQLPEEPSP
UniProt Q12913: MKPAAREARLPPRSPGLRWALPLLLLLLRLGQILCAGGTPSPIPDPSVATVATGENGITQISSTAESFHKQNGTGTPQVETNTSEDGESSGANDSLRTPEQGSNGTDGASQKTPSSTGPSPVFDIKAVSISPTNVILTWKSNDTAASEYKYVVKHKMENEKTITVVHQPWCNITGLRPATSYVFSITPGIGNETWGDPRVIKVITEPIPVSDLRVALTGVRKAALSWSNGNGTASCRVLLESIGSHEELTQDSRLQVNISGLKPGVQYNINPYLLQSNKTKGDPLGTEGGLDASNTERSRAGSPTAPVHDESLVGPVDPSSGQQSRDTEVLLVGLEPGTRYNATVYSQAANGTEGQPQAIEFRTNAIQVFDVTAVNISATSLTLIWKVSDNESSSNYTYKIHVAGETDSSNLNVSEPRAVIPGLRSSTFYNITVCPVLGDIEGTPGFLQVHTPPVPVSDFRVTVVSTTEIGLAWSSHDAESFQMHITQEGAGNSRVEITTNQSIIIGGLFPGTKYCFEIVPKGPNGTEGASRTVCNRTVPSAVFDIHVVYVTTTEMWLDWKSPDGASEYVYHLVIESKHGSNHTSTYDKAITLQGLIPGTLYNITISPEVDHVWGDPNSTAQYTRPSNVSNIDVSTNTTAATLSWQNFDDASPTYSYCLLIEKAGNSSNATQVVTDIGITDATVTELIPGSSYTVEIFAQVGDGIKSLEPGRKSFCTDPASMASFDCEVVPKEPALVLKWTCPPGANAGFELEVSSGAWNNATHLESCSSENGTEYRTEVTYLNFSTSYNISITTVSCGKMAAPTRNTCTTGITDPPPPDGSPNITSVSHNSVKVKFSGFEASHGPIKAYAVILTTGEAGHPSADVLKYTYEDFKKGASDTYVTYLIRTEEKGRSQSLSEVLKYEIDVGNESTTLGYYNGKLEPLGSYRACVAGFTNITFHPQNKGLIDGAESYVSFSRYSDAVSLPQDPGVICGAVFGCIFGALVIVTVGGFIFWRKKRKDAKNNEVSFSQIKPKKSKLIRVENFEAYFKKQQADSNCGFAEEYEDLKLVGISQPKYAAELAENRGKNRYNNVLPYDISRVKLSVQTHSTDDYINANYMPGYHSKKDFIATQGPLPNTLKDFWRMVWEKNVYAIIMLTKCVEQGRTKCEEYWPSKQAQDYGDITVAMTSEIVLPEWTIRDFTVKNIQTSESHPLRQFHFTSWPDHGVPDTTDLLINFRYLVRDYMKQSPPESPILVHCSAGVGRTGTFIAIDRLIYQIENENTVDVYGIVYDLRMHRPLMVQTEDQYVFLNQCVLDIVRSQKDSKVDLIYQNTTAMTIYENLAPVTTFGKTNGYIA
UniProt Q9UKA9: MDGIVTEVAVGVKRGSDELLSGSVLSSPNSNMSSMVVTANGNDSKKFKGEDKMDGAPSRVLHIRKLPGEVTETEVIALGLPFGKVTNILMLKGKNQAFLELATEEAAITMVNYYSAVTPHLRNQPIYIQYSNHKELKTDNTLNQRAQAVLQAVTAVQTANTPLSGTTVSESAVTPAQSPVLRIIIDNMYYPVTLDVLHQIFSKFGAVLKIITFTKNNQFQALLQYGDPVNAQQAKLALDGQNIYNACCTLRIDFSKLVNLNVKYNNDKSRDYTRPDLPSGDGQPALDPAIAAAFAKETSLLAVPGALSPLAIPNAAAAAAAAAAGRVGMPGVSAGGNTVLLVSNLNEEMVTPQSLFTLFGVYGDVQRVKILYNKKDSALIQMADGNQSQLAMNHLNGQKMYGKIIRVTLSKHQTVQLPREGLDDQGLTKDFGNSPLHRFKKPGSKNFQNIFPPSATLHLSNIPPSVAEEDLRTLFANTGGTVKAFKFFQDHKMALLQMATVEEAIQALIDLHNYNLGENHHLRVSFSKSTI

Key:
Assay in all cases: log2 fold change, soluble protein after heating vs DMSO (PISA); higher = thermal stabilisation; K562 cells, 10 uM, 30 min; active = over 0.2 and 3.5 SD of the protein, either way, in both replicates (recomputed)
[1] = compound: COC1=CC=C(C=C1)CN2C=CC3=C2C=C(C=C3)C(=O)NO
Outline: (§1)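 Values are thermal stability changes relative to control samples and are taken from duplicates. They are stated as log2 fold changes. Before quantification by TMTpro 16plex LC-MS/MS with equalised channel sums, K562 cells at 2×10^6 cells/mL were treated with 10 μM compound for 30 min, heated in aliquots for 3 min across 48°C-58°C, pooled, extracted in PBS with 0.5% NP-40 at 4°C, and centrifuged at 21,000xg for 90 min to give the soluble supernatant.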

filanesib = compound: CON(C)C(=O)N1N=C(c2cc(F)ccc2F)S[C@@]1(CCCN)c1ccccc1 [filanesib]
Outline: as §1

zotarolimus = compound: CO[C@H]1C[C@@H]2CC[C@@H](C)[C@@](O)(O2)C(=O)C(=O)N2CCCC[C@H]2C(=O)O[C@H]([C@H](C)C[C@@H]2CC[C@H](n3cnnn3)[C@H](OC)C2)CC(=O)[C@H](C)/C=C(\C)[C@@H](O)[C@@H](OC)C(=O)[C@H](C)C[C@H](C)/C=C/C=C/C=C/1C [zotarolimus]
Outline: as §1

idasanutlin = compound: COc1cc(C(=O)O)ccc1NC(=O)[C@@H]1N[C@@H](CC(C)(C)C)[C@](C#N)(c2ccc(Cl)cc2F)[C@H]1c1cccc(Cl)c1F [idasanutlin]
Outline: as §1

gefitinib = compound: COc1cc2ncnc(Nc3ccc(F)c(Cl)c3)c2cc1OCCCN1CCOCC1 [gefitinib]
Outline: as §1

alisertib = compound: COc1cc(Nc2ncc3c(n2)-c2ccc(Cl)cc2C(c2c(F)cccc2OC)=NC3)ccc1C(=O)O [alisertib]
Outline: as §1

[2] = compound: COc1cc2nc(-c3cc(F)ccc3O)nc(N[C@@H]3CNC[C@H]3C(C)(C)O)c2cc1OC
Outline: as §1

[3] = compound: COc1cccc2cc(-c3nc([C@H]4CC[C@H](C(=O)O)CC4)n4ncnc(N)c34)[nH]c12
Outline: as §1

lapatinib = compound: CS(=O)(=O)CCNCc1ccc(-c2ccc3ncnc(Nc4ccc(OCc5cccc(F)c5)c(Cl)c4)c3c2)o1 [lapatinib]
Outline: as §1

pictilisib = compound: CS(=O)(=O)N1CCN(Cc2cc3nc(-c4cccc5[nH]ncc45)nc(N4CCOCC4)c3s2)CC1 [pictilisib]
Outline: as §1

Measured: log2 fold change

PSD4 (UniProt Q8NDX1)
inactive: [1] 0.004 | filanesib 0.113 | zotarolimus 0.186 | idasanutlin 0.147 | gefitinib -0.049

PTCD3 (UniProt Q96EY7)
inactive: [1] 0.038 | filanesib 0.026 | zotarolimus 0.131 | idasanutlin -0.174 | alisertib -0.034 | [2] -0.047 | gefitinib -0.006 | [3] -0.047 | lapatinib 0.184 | pictilisib 0.005

PTTG1 (UniProt O95997)
inactive: [1] 0.011 | filanesib 0.052 | zotarolimus -0.077 | idasanutlin -0.011 | alisertib -0.022 | [2] -0.156 | gefitinib -0.048 | [3] -0.058 | lapatinib -0.013 | pictilisib -0.07

PYURF (UniProt Q96I23)
inactive: [1] -0.014 | filanesib -0.12 | zotarolimus -0.048 | idasanutlin 0.035 | alisertib -0.057 | [2] -0.121 | gefitinib -0.05 | [3] 0.023 | lapatinib -0.077 | pictilisib 0.037

PTPN2 (UniProt P17706)
inactive: [1] 0.027 | filanesib 0.152 | zotarolimus 0.065 | idasanutlin -0.11 | alisertib 0.064 | [2] 0.078 | [3] -0.084 | lapatinib 0.022 | pictilisib 0.023

PSEN1 (UniProt P49768)
inactive: [1] -0.077 | filanesib -0.04 | zotarolimus 0.078 | alisertib -0.03 | [2] 0.017 | gefitinib 0.007 | [3] 0.128 | lapatinib -0.044

PTTG1IP (UniProt P53801)
inactive: [1] -0.013 | filanesib -0.186 | zotarolimus -0.124 | idasanutlin -0.004 | alisertib -0.046 | [2] 0.038 | gefitinib 0.158 | [3] 0.007 | lapatinib -0.096 | pictilisib 0.086

PSMG1 (UniProt O95456)
inactive: [1] 0.02 | filanesib -0.055 | zotarolimus -0.029 | idasanutlin -0.018 | alisertib -0.099 | [2] -0.031 | gefitinib -0.01 | [3] -0.028 | lapatinib 0.007 | pictilisib -0.017

PTBP1 (UniProt P26599)
inactive: [1] 0.087 | filanesib 0.068 | zotarolimus 0.078 | idasanutlin 0.008 | alisertib -0.067 | [2] -0.039 | gefitinib -0.006 | [3] 0.031 | lapatinib -0.005 | pictilisib -0.032

PUS7L (UniProt Q9H0K6)
inactive: [1] 0.02 | filanesib 0.01 | zotarolimus 0.001 | idasanutlin 0.044 | alisertib -0.03 | [2] 0.038 | gefitinib 0.026 | [3] 0.024 | lapatinib 0.037 | pictilisib -0.047

PSMD11 (UniProt O00231)
inactive: [1] 0.018 | filanesib -0.011 | zotarolimus 0.028 | idasanutlin 0.004 | alisertib -0.058 | [2] -0.052 | gefitinib -0.043 | [3] -0.071 | lapatinib 0.086 | pictilisib 0.003

PSMG2 (UniProt Q969U7)
inactive: [1] -0.081 | filanesib -0.045 | zotarolimus 0.017 | idasanutlin -0.079 | alisertib -0.055 | [2] 0.016 | gefitinib -0.009 | [3] 0.059 | lapatinib -0.013 | pictilisib 0.072

PTGFRN (UniProt Q9P2B2)
inactive: [1] 0.006 | filanesib 0.129 | zotarolimus -0.021 | idasanutlin 0.073 | alisertib 0.01 | [2] 0.139 | gefitinib 0.025 | [3] 0.124 | lapatinib 0.036 | pictilisib 0.122

PRXL2B isoform 3 (UniProt Q8TBF2)
inactive: [1] 0.18 | filanesib -0.063 | zotarolimus -0.11 | idasanutlin -0.039 | alisertib -0.052 | [2] -0.028 | gefitinib -0.013 | [3] -0.006 | lapatinib -0.011 | pictilisib 0.034

QARS (UniProt P47897)
inactive: [1] -0.032 | filanesib 0.425 | zotarolimus 0.065 | idasanutlin 0.228 | alisertib -0.06 | [2] -0.059 | gefitinib -0.033 | [3] -0.281 | lapatinib 0.129 | pictilisib -0.139

PSMB5 (UniProt P28074)
inactive: [1] 0.038 | filanesib -0.017 | zotarolimus -0.02 | idasanutlin 0.014 | alisertib -0.068 | [2] -0.047 | gefitinib -0.041 | [3] -0.017 | lapatinib 0.079 | pictilisib -0.036

PTRH1 (UniProt Q86Y79)
inactive: [1] 0.003 | zotarolimus -0.038 | idasanutlin 0.072 | pictilisib -0.01

PSMB8 (UniProt P28062)
inactive: [1] -0.062 | zotarolimus 0.03 | idasanutlin 0.013 | gefitinib 0.159 | pictilisib -0.046

PTEN isoform 2 (UniProt P60484)
inactive: [1] 0.081 | [2] -0.251 | lapatinib 0.094 | pictilisib -0.028

PTPA (UniProt A6PVN8)
inactive: filanesib 0.019 | zotarolimus -0.143 | idasanutlin 0.09 | alisertib -0.383 | [2] -0.085 | gefitinib 0.021 | [3] 0.297 | lapatinib 0.043 | pictilisib 0.035

PUF60 isoform 2 (UniProt Q9UHX1)
inactive: zotarolimus 0.18 | idasanutlin -0.042 | alisertib -0.203 | [2] -0.071 | [3] 0.027 | lapatinib 0.407

R3HCC1L (UniProt Q7Z5L2)
inactive: filanesib 0.04 | zotarolimus -0.022 | idasanutlin -0.316 | [2] -0.019 | gefitinib -0.034 | lapatinib 0.039 | pictilisib 0.196

PYGO2 (UniProt Q9BRQ0)
inactive: [1] 0.093 | filanesib -0.019 | alisertib -0.205 | [2] 0.052 | gefitinib -0.037 | [3] 0.022 | lapatinib -0.164 | pictilisib -0.117

PSMC3 (UniProt E9PLG2)
inactive: [1] -0.612 | filanesib 0.17 | alisertib 0.071 | [3] 0.079

PSMA3 (UniProt H0YJ03)
inactive: [1] 0.362 | zotarolimus -0.004 | idasanutlin 0.009 | [2] 0.203 | lapatinib 0.021

PSMD8 (UniProt K7EK21)
inactive: zotarolimus -0.174

PSMB10 (UniProt P40306)
inactive: filanesib 0.024 | idasanutlin -0.105 | alisertib -0.174 | [2] 0.03 | gefitinib -0.118 | [3] -0.033 | lapatinib 0.079

PYCR1 (UniProt J3QKT4)
inactive: idasanutlin -0.107 | pictilisib 0.167

PURG (UniProt Q9UJV8)
inactive: filanesib 0.215 | gefitinib -0.043

PSD2 (UniProt Q9BQI7)
inactive: filanesib -0.136 | idasanutlin 0.014 | alisertib 0.12 | gefitinib -0.004 | [3] 0.045

PTPN9 (UniProt P43378)
inactive: alisertib -0.569 | [3] -0.16 | pictilisib -0.209

PTS (UniProt Q03393)
inactive: [1] -0.193 | zotarolimus 0.003 | idasanutlin -0.018 | alisertib 0.019 | [2] -0.037 | gefitinib 0.01 | [3] 0.021 | lapatinib -0.044 | pictilisib 0.109

PSMC3IP (UniProt Q9P2W1)
inactive: zotarolimus 0.071 | idasanutlin 0.004 | alisertib 0.182 | [2] 0.054 | gefitinib -0.127 | [3] -0.273 | lapatinib -0.001 | pictilisib -0.136

PRUNE2 isoform 3 (UniProt Q8WUY3)
inactive: [1] 0.258 | idasanutlin 0.067 | alisertib -0.107 | [2] -0.124 | gefitinib 0.15 | [3] -0.003 | lapatinib 0.22

PTPN18 (UniProt Q99952)
inactive: [1] -0.129 | filanesib 0.161 | alisertib -0.053 | gefitinib 0.042 | [3] 0.026

PSD3 (UniProt Q9NYI0)
inactive: [1] -0.003 | zotarolimus 0.074 | idasanutlin 0.015 | alisertib -0.003 | [2] 0.141 | gefitinib 0.036 | [3] 0.069 | lapatinib -0.07

PTPN7 isoform 3 (UniProt P35236)
inactive: filanesib 0.17 | zotarolimus -0.065 | [2] 0.006 | lapatinib 0.271

Quoted from the entries so far (2 entries):
PRUNE2 isoform 3 (UniProt Q8WUY3)
inactive: [1] 0.258 | idasanutlin 0.067 | alisertib -0.107 | [2] -0.124 | gefitinib 0.15 | [3] -0.003 | lapatinib 0.22

PTPN18 (UniProt Q99952)
inactive: [1] -0.129 | filanesib 0.161 | alisertib -0.053 | gefitinib 0.042 | [3] 0.026

Following part:

PSIP1 (UniProt V9GYT7)
inactive: [1] 0.107 | zotarolimus -0.101 | alisertib -0.148 | [2] 0.045 | gefitinib -0.036 | [3] -0.192 | lapatinib -0.079 | pictilisib 0.111

PTPRS (UniProt Q13332)
inactive: [1] 0.518 | filanesib 0.022 | idasanutlin 0.016 | gefitinib 0.115 | pictilisib 0.262

PTPRJ (UniProt Q12913)
inactive: filanesib 0.048

PSMC1 (UniProt G3V4X1)
inactive: zotarolimus -0.045 | [2] -0.106 | gefitinib -0.036 | lapatinib -0.105 | pictilisib -0.071

PVR (UniProt P15151)
inactive: filanesib 0.015 | zotarolimus 0.004 | idasanutlin -0.038 | alisertib -0.066 | [2] 0.011 | [3] 0.081 | lapatinib 0.1 | pictilisib 0.035

PUM2 isoform 3 (UniProt Q8TB72)
inactive: zotarolimus 0.173

PTGER3 isoform 2 (UniProt P43115)
inactive: [1] -0.039 | idasanutlin 0.14

PUM1 (UniProt Q14671)
inactive: [1] -0.029 | zotarolimus -0.076 | idasanutlin 0.037 | pictilisib 0.032

PSEN2 (UniProt P49810)
inactive: filanesib 0.141 | idasanutlin 0.037 | alisertib -0.011 | [3] 0.193 | pictilisib -0.068

PTBP2 isoform 3 (UniProt Q9UKA9)
inactive: [1] 0.111 | filanesib 0.106 | [2] 0.179 | lapatinib -0.052 | pictilisib -0.031

PUSL1 (UniProt Q8N0Z8)
inactive: filanesib 0.107 | zotarolimus -0.047 | alisertib 0.244 | [3] -0.082 | pictilisib 0.015

Random excerpt: 3 records from the list, in no set order.
PUM2 isoform 3 (UniProt Q8TB72)
inactive: zotarolimus 0.173

PTGER3 isoform 2 (UniProt P43115)
inactive: [1] -0.039 | idasanutlin 0.14

PSEN2 (UniProt P49810)
inactive: filanesib 0.141 | idasanutlin 0.037 | alisertib -0.011 | [3] 0.193 | pictilisib -0.068

(next part)

PSMA3 (UniProt G3V4X5)
inactive: [1] -0.122 | [2] 0.255 | lapatinib -0.18

PSMB5 isoform 3 (UniProt P28074)
inactive: filanesib 0.127 | idasanutlin 0.022 | [2] 0.185 | lapatinib -0.522
